Laboratory results taken from PubChem BioAssay AID694 (Emory University Molecular Libraries Screening Center, 2007).
This is one part of the list. Further columns of the screen follow, without active or inactive calls. Residues, ends and D or L forms follow the SMILES beside them. *: point of attachment. Cbz = O=C(OCc1ccccc1)*

By UniProt entry, the sequences of proteins in these tests, tags left out.
UniProt P03372, whole entry, looked up: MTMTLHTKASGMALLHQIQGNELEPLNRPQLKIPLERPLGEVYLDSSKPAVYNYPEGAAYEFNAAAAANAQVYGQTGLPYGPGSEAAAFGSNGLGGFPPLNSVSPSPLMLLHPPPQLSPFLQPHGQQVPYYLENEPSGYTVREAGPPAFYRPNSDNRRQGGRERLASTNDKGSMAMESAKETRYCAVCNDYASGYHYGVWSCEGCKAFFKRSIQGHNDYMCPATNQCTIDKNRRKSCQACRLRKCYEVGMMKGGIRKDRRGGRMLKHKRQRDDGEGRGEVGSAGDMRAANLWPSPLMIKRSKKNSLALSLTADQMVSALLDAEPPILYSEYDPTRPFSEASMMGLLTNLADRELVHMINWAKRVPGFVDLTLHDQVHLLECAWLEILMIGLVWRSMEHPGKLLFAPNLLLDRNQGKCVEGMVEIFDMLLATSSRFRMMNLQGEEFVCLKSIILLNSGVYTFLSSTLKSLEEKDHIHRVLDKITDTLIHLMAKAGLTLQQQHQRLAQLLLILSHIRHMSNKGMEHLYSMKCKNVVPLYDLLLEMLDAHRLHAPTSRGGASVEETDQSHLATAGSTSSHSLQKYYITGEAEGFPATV

Target: Estrogen receptor (Homo sapiens) (UniProt P03372)
Assay: ERα coactivator peptide binding inhibitors, primary screen, biochemical, LOPAC library, TR-FRET (AID 694);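 also: receptor was agonist-bound with estradiol present during the assay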
Conditions: TR-FRET ERalpha-coactivator peptide binding, at 15 µM, stronger effect = higher value

| SMILES | inhibition |
| --- | --- |
| N[C@H](C(=O)O)[C@H]1C[C@@H]1C(=O)O | 12.2% |
| COC(=O)C(N)Cc1ccc(Cl)cc1 (configuration not stated) | 5.72% |
| CCN1CCC[C@H]1CNC(=O)c1c(O)c(Cl)cc(Cl)c1OC | 2.3% |
| O=C(O)c1cccnc1C(=O)O | -0.64% |
| Nc1ncnc2c1ncn2[C@@H]1O[C@H](CO)[C@H](O)C1O (some centres not stated) | -1.88% |
| COC(=O)C1=C(C)NC(C)=C(C(=O)OCCN(C)Cc2ccccc2)C1c1cccc([N+](=O)[O-])c1 (configuration not stated) | 1.94% |
| Cc1ccccc1C(OCCN(C)C)c1ccccc1 (configuration not stated) | 4.97% |
| CNC(=O)[C@H]1O[C@@H](n2cnc3c(NCc4ccc(N)cc4)ncnc32)C(O)[C@H]1O (some centres not stated) | -4.59% |
| CC(C)=CCC/C(C)=C/CC/C(C)=C/CSc1ccccc1C(=O)O | 11% |
| COc1ccc(NC(=O)c2ccc(-c3ccc(-c4noc(C)n4)cc3C)cc2)cc1N1CCN(C)CC1 | 3.73% |
| CNc1ncnc2c1ncn2[C@@H]1O[C@H](CO)[C@H](O)C1O (some centres not stated) | 3.88% |
| Cc1cnc(C(=O)NCCc2ccc(S(=O)(=O)NC(=O)NC3CCCCC3)cc2)cn1 | 8.86% |
| COc1ccccc1N1CCN(CCCCNC(=O)c2ccc3ccccc3c2)CC1 | -5.6% |
| O=C(O)C1CN(CCCP(=O)(O)O)CCN1 (configuration not stated) | -8.49% |
| O=c1cc(N2CCOCC2)oc2c(-c3ccccc3)cccc12 | 1.77% |
| CC(C)NNC(=O)c1ccncc1 | -8.03% |
| O=C(O)c1cc(=O)c2ccccc2[nH]1 | 6.26% |
| CN1CCN2c3ccccc3Cc3ccccc3C2C1 (configuration not stated) | 1.4% |
| CC(=O)O[C@H]1C[C@@H]2CC[C@@H]3[C@H](CC[C@@]4(C)[C@H]3C[C@H]([N+]3(C)CCCCC3)[C@@H]4OC(C)=O)[C@@]2(C)C[C@@H]1[N+]1(C)CCCCC1 | -4.44% |
| Cc1nc2sccn2c(=O)c1CCN1CCC(=C(c2ccc(F)cc2)c2ccc(F)cc2)CC1 | -0.91% |
| CCN1C(=O)C=CC1=O | 0.22% |
| CCC1(C)CC(=O)NC1=O (configuration not stated) | 0.13% |
| Cc1nc2c([nH]1)c(=O)n(C)c(=O)n2Cc1ccco1 | 2.47% |
| OC[C@H]1NC[C@@H](O)[C@@H]1O | -1.72% |
| CC(C)[C@H](NC(=O)OCc1ccccc1)C(=O)N[C@H](C=O)Cc1ccccc1 (Cbz-Val-Phe-aldehyde) | 0.18% |

| SMILES | inhibition |
| --- | --- |
| CCCCS(=N)(=O)CCC(N)C(=O)O (configuration not stated) | 20.3% |
| COc1cccc(OC)c1OCCNCC1CSc2ccccc2O1 (configuration not stated) | 4.39% |
| COc1cc(CNC(=O)CCCCCCC(C)C)ccc1O | -0.34% |
| CCCCCCCCCCCCCCCCCCNC(=O)OCC(COP(=O)([O-])OCC[n+]1ccsc1)OC (configuration not stated) | -1.62% |
| C=CCN1CCc2cc(O)c(O)cc2C(c2ccccc2)C1 (configuration not stated) | 5.41% |
| Nc1nc(N)c2nc(-c3ccccc3)c(N)nc2n1 | 5.21% |
| CC(CN(C)C)CN1c2ccccc2CCc2ccccc21 (configuration not stated) | 1.23% |
| NC(=O)c1ccccc1 | 2.12% |
| NC(N)=NC(N)=Nc1ccccc1 | 2.03% |
| C[C@H](Cc1ccc(O)c(O)c1)[C@@H](C)Cc1ccc(O)c(O)c1 | 8.86% |
| NCCc1ccc(O)c(O)c1 | -1.26% |
| O=C1NC(c2cccc([N+](=O)[O-])c2)=CCN1c1ccccc1O | -0.13% |
| Nc1ncnc2c1ncn2C1CCCC1 | 3.39% |
| CCCN(CC1CC1)c1nc(C)nc(Nc2c(Cl)cc(Cl)cc2Cl)c1Cl | 2.53% |
| O=C(O)c1cc2cc(F)ccc2[nH]1 | -4.06% |
| O=C(Nc1ccc([N+](=O)[O-])cc1Cl)c1cc(Cl)ccc1O | 7.1% |
| CC12CC3CC(C)(C1)CC(N)(C3)C2 | 5.19% |
| CC(N)=NCc1cccc(CN)c1 | 2.66% |
| CNCC(O)c1ccc(O)c(O)c1 (configuration not stated) | 6.11% |
| c1cc(CN2CCCCC2)cc(OCCCNc2nc3ccccc3s2)c1 | 2.89% |
| COc1ccc2c(c1)c(CC(=O)O)c(C)n2Cc1ccc(F)cc1 | 3.51% |
| C1CCC(N=C(NC23CC4CC(CC(C4)C2)C3)N2CCOCC2)CC1 | -5.94% |
| NC1CCN(O)C1=O (configuration not stated) | 34% |
| O=C(O)CCC(C(=O)O)N1C(=O)c2ccccc2C1=O (configuration not stated) | 2.55% |
| CC(=O)Nc1nnc(S(N)(=O)=O)s1 | 6.81% |

| SMILES | inhibition |
| --- | --- |
| O=c1ccn([C@@H]2O[C@H](COP(=O)(O)OP(=O)(O)O)[C@@H](O)[C@H]2O)c(=O)[nH]1 | -1.24% |
| CC(C(O)c1ccc(O)cc1)N1CCC(Cc2ccccc2)CC1 (configuration not stated) | 1.47% |
| Cc1ccc(OCC(O)C(C)NC(C)C)c2c1CCC2 (configuration not stated) | 2.34% |
| COc1ccc2c(c1)c(CC(=O)O)c(C)n2C(=O)c1ccccc1 | 1.38% |
| C=C/C(C)=C/[C@@]1(C)SC(=O)C(C)=C1O | 6.08% |
| CCN(CC)CCOCCOC(=O)C1(c2ccccc2)CCCC1 | 3.69% |
| O=C(c1cc(O)c(O)c([N+](=O)[O-])c1)c1ccccc1F | -5.94% |
| Cc1cc(C(C)(C)C)cc(C)c1CC1=NCCN1 | -1.05% |
| O=c1[nH]ccc2c(O)cccc12 | -1.51% |
| CN(C)S(=O)(=O)c1ccc2c(c1)/C(=C/c1cc3c([nH]1)CCCC3)C(=O)N2 | -3.56% |
| CCCNC(=O)NS(=O)(=O)c1ccc(Cl)cc1 | -2.53% |
| NCCCCCC(=O)O | -8.76% |
| CC12C(=O)OC(=O)C1(C)C1CCC2O1 (configuration not stated) | -6.49% |
| CC(N)C1CCC(C(=O)Nc2ccncc2)CC1 (configuration not stated) | -2.72% |
| NC1(C(=O)O)CC1 | 0.25% |
| CCN(CC)C(=O)c1ccc(O)c(OC)c1 | 2.41% |
| O=C(c1ccc(F)cc1)C1CCN(CCn2c(=O)[nH]c3ccccc3c2=O)CC1 | 15.5% |
| O=C1NCC2(CCN(CCc3ccccc3)CC2)O1 | 1.12% |
| CSC(=N)N | -3.29% |
| CC1CCN(CC[C@H]2CCCN2S(=O)(=O)c2cccc(O)c2)CC1 | -1.55% |
| COc1cc(C(O)CO)ccc1O (configuration not stated) | 24.3% |
| CN(C)CCC(c1ccc(Br)cc1)c1ccccn1 (configuration not stated) | -2.7% |
| C[C@]12CCC(=O)C=C1CC[C@@H]1[C@@H]2CC[C@@]2(C)[C@H]1CC[C@]2(O)C(=O)CO | 4.41% |
| CC(=O)N[C@H](C(=O)O)C(C)(C)SN=O | 0.14% |
| CC(C)NCC(O)COc1ccc(CC(N)=O)cc1 (configuration not stated) | -8.18% |

3 successive compounds already listed, quoted:

| SMILES | inhibition |
| --- | --- |
| COc1cc(C(O)CO)ccc1O (configuration not stated) | 24.3% |
| CN(C)CCC(c1ccc(Br)cc1)c1ccccn1 (configuration not stated) | -2.7% |
| C[C@]12CCC(=O)C=C1CC[C@@H]1[C@@H]2CC[C@@]2(C)[C@H]1CC[C@]2(O)C(=O)CO | 4.41% |

Remaining list, next part

| SMILES | inhibition |
| --- | --- |
| CC1=NS(=O)(=O)c2cc(Cl)ccc2N1 | -6.11% |
| C[C@@]1(C2CCCC2)Cc2cc(OCC(=O)O)c(Cl)c(Cl)c2C1=O | 1.68% |
| Oc1cc2c(cc1O)C(c1ccccc1)CNCC2 (configuration not stated) | 6.19% |
| CN1CCN(CC(=O)N2c3ccccc3C(=O)Nc3cccnc32)CC1 | -3.99% |
| O=C(O)CCCC[C@@H]1CCSS1 | -6.23% |
| O=C1Nc2ccc(I)cc2/C1=C/c1cc(Br)c(O)c(Br)c1 | 40.6% |
| CNC(=O)[C@H]1O[C@@H](n2cnc3c(NCc4ccc(I)cc4)nc(Cl)nc32)[C@H](O)[C@@H]1O | -3.68% |
| CN(C)c1nc(N)c(C(=O)N=C(N)N)nc1Cl | -2.78% |
| CN1C2CCC1CC(NC(=O)c1nn(C)c3ccccc13)C2 (configuration not stated) | 2.78% |
| CN(C)CC[C@@H](c1ccc(Br)cc1)c1ccccn1 | 1.77% |
| C=C(C)C1CC=C(C(=O)O)CC1 (configuration not stated) | 0.63% |
| NCCCCN | -2.37% |
| CCC1(O)CC2CN(CCc3c([nH]c4ccccc34)[C@@](C(=O)OC)(c3cc4c(cc3OC)N(C=O)C3[C@]45CCN4CC=C[C@@](CC)([C@@H](OC(C)=O)[C@]3(O)C(=O)OC)[C@H]45)C2)C1 (some centres not stated) | -5.2% |
| Oc1ccc(C2CNCc3sccc32)cc1O (configuration not stated) | -1.73% |
| N=C(N)SCCc1ccc(CCSC(=N)N)cc1 | -2.83% |
| CC1=C(C(=O)O)N2C(=O)[C@@H](NC(=O)C(N)C3=CCC=CC3)[C@H]2SC1 (some centres not stated) | 1.8% |
| COc1ccc2c(c1)c(CC(=O)O)c(C)n2Cc1ccc(Cl)cc1 | 2.9% |
| CN1C(C(=O)Nc2ccccn2)=C(O)c2ccccc2S1(=O)=O | 1.67% |
| COCCOC(=O)C1=C(C)NC(C)=C(C(=O)OC(C)C)C1c1cccc([N+](=O)[O-])c1 (configuration not stated) | -1.87% |
| CN1CCc2cc(NC(=O)Nc3cccnc3)ccc21 | -3.39% |
| CC(C[N+](C)(C)C)OC(N)=O (configuration not stated) | 3.27% |
| CCCCC1C(=O)N(c2ccccc2)N(c2ccccc2)C1=O | 5.28% |
| N=C(N)SCCN | 1.27% |
| c1ccc(CN2CCC3(CCCc4ccccc43)CC2)cc1 | 2.55% |
| CC1(C)C(=O)N(CCN2CCC(C(=O)c3ccc(F)cc3)CC2)c2ccccc21 | 6.15% |

| SMILES | inhibition |
| --- | --- |
| OCC1NC[C@@H](O)C(O)[C@@H]1O (some centres not stated) | 1.79% |
| CNC(=O)[C@H]1O[C@@H](n2cnc3c(NCc4cccc(I)c4)ncnc32)C(O)[C@H]1O (some centres not stated) | 0.33% |
| Cc1cccc(C2CN(C)CCc3c2cc(O)c(O)c3Cl)c1 (configuration not stated) | 3.74% |
| CCCn1c(=O)c2[nH]c(-c3ccc(OCC(=O)NCCN)cc3)nc2n(CCC)c1=O | 6.69% |
| O=C(OCCN1CCCCC1)c1c[nH]c2ccccc12 | -1.45% |
| [Li+] | 15.6% |
| CCSC(N)=Nc1ccc(C(F)(F)F)cc1 | 0.15% |
| OCc1ccc(-c2nn(Cc3ccccc3)c3ccccc23)o1 | 2.68% |
| O=C(O)CCC/C=C\C[C@@H]1[C@@H](/C=C/[C@H](O)C2Cc3ccccc3C2)[C@@H](F)C[C@@H]1O | -5.09% |
| CC(C)(Oc1ccc(C2CC2(Cl)Cl)cc1)C(=O)O (configuration not stated) | -2.45% |
| Nc1nc(Cl)nc2c1ncn2[C@@H]1O[C@H](CO)[C@H](O)C1O (some centres not stated) | 8.33% |
| CC(C)N(CCC(=O)c1ccc2ccccc2c1)Cc1ccccc1 | 1.45% |
| C[C@H]1c2cccc(O)c2C(O)=C2C(=O)[C@]3(O)C(O)=C(C(N)=O)C(=O)[C@@H](N(C)C)[C@@H]3[C@@H](O)[C@@H]21 | 4.58% |
| CCCCC[C@H](CC(=O)NO)C(=O)N[C@H](C(=O)N1CCC[C@H]1CO)C(C)C | -6.87% |
| CC(=O)OC(C)C[N+](C)(C)C (configuration not stated) | -1.37% |
| CN(C)c1ccc(/C=C2\C(=O)Nc3ccccc32)cc1 | -7.53% |
| CNCCC(Oc1ccccc1C)c1ccccc1 (configuration not stated) | -1.6% |
| COC1=C(OC)C(=O)c2ccccc2C1=O | 6.29% |
| Cn1cnc2c(NC3CCCC3)ncnc21 | 3.21% |
| Clc1ccccc1C(c1ccccc1)(c1ccccc1)n1ccnc1 | 7.99% |
| CCCC(C(=O)OCCN(CC)CC)(c1ccccc1)c1ccccc1 | 3.95% |
| COc1cc(CC(=O)O)ccc1O | 6.61% |

Reprinted at random: four compounds from above

| SMILES | inhibition |
| --- | --- |
| CC(C)N(CCC(=O)c1ccc2ccccc2c1)Cc1ccccc1 | 1.45% |
| O=C(O)CCC/C=C\C[C@@H]1[C@@H](/C=C/[C@H](O)C2Cc3ccccc3C2)[C@@H](F)C[C@@H]1O | -5.09% |
| CNC(=O)[C@H]1O[C@@H](n2cnc3c(NCc4cccc(I)c4)ncnc32)C(O)[C@H]1O (some centres not stated) | 0.33% |
| CC(=O)OC(C)C[N+](C)(C)C (configuration not stated) | -1.37% |
